Source: PubChem BioAssay AID2685 (National Center for Advancing Translational Sciences (NCATS), 2010)
The other results are listed elsewhere or left out. These are further read-outs of the screen, such as a control signal, another cell line or another target. No call is given for them. The list favours compounds with an active or inconclusive main result. Words in brackets tell the shape of the fitted curve; partial curves, single points and poor fits give uncertain potencies.

Test: qHTS Assay for Lipid Storage Modulators in Drosophila S3 Cells;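 for cell number change: cells counted by Cell Tracker Red CMTPX staining in the red channel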
Conditions: BODIPY lipid droplet fluorescence, 18-24 h; for cell number change: measured here: cell count max response, cells fed with added oleic acid
Text: NIH Molecular Libraries Probe Production Centers Network [MLPCN] NIH Chemical Genomics Center [NCGC] MLPCN Grant: 1 R03 MH085686-01 Assay Submitter (PI): Beller, Mathias; Max-Planck-Institut fur Biophysikalische Chemie NCGC Assay Overview: Storing lipids as a reservoir for energy or the anabolism of elementary metabolites is a common feature of probably all cells and is conserved from bacteria to humans. The universal cellular lipid storage organelle is the so-called lipid storage droplet (LD). Although ubiquitous, LDs share a simple structure composed of a hydrophobic core that harbors the storage lipids, which is shielded by a droplet-specific phospholipid monolayer to which proteins are attached. The current model of LD biogenesis involves an incorporation of the lipid core into the membrane leaflets of the endoplasmic reticulum (ER) followed by a subsequent budding-like maturation of a LD, which ultimately pinches off. Once released, LD volume can increase by localized lipogenesis or fusion of existing droplet. Storage lipids are re-mobilized enzymatically by lipase activity. Lipase regulation in the adipocyte is heavily studied and involves multiple components including catecholamine signaling, the LD-associated proteins Perilipin and comparative gene identification (CGI-58) and at least two lipases named hormone sensitive lipase (HSL) and adipocyte triglyceride lipase (ATGL). LD regulation outside of the adipocyte is poorly understood and only few components are known. However, there is an urgent need to learn more about ectopic fat depots as mislocalized storage of lipids, for example in the liver or muscle, is an eminent health problem associated with insulin resistance or the metabolic syndrome. We developed a laser-scanning cytometer assay to enable 1,536-well screening and combined the results of the small molecules screen with an RNAi database based on lipid storage.
Triacsin C (Sigma-Aldrich T-4540), an inhibitor of long-chain fatty acyl CoA synthetase that blocks synthesis of triglycerides, was used as a positive control for lipid under-storage. A total of 23 nL of compound solution of different concentrations were transferred to the assay plates using a Kalypsys pin tool equipped with a 1,536-pin array containing 10-nL slotted pins (FP1S10, 0.457-mm diameter, 50.8 mm long; V&P Scientific). One microliter of oleic acid (400 uM) was added, and the plate was lidded with stainless steel rubber gasket lined lids containing pinholes. […] Fluorescence was detected by excitation of the fluorophores with a 488-nm laser on an Acumen Explorer (TTP Lab Tech). The total intensity in channel 2 (500-530 nm) reflected lipid droplet accumulation. Cells were detected using channel 3 (575-640 nm) with 5-um width and 100-um depth filters. The ratio of the number of objects in PMT channel 2 over the number of objects in PMT channel 3 was also calculated. Percent activity was computed relative to an internal control (100% inhibited lipid droplet deposition due to the presence of 20 uM Triacsin C), which was added to 32 wells/plate.

[1] = measured here: cell number channel AC50, cells fed with added oleic acid
[2] = measured here: lipid fluorescence (Fed channel) AC50, cells fed with added oleic acid

Structure (SMILES) | cell number change [%] | AC50 [1] | AC50 [2]
COc1ccc(-c2cn(Cc3ccc(C(=O)NCc4ccc(C)cc4)cc3)c(C(C)N)n2)cc1 (configuration not stated) | -11.6 | 7.31 µM [falling, single point] | 0.058 µM [falling, full curve, poor fit]
CC1CCCN(CCCOc2ccc([N+](=O)[O-])cc2)C1 (configuration not stated) | 86.5 | 32.6 µM [rising, partial curve, poor fit] | 20.6 µM [rising, single point]
COc1cc(/C=N/NC(=O)c2cc(C3CC3)[nH]n2)ccc1O | -13.2 | 1.03 µM [falling, full curve] | –
Cc1ccc(SCC(=O)Nc2ccc(S(=O)(=O)Nc3ncccn3)cc2)cc1 | 28.9 | – | 36.6 µM [rising, partial curve, poor fit]
COc1ccc(C)cc1NC(=O)NCc1ccco1 | -44.8 | – | –
CCOC(=O)c1sc(N)c(C#N)c1COC(=O)C1=COCCO1 | -15.3 | – | –
CCOc1ccc(Nc2nc3cc(S(=O)(=O)CC)ccc3o2)cc1 | 30.9 | 23.1 µM [rising, partial curve, poor fit] | 0.00517 µM [rising, full curve, poor fit]
COC(=O)C1(C)NC(c2ccc(O)cc2)C2C(=O)N(c3ccc4c(c3)OCCO4)C(=O)C21 (configuration not stated) | 57.5 | 14.6 µM [rising, partial curve] | –
Cc1n(C)c2cc(Cl)ccc2[n+]1Cc1ccccc1 | 14 | – | –
CCC(=O)Nc1nnc(S(=O)(=O)N2CCCC2)s1 | 0.599 | – | 20.6 µM [rising, single point]
Cc1ccc(Cl)cc1NC(=O)COC(=O)CC1CCCCC1 | 36.4 | – | 3.66 µM [falling, single point]
CSc1nnc2n(C3CCCCC3)c(=O)c3c4c(sc3n12)CCCC4 | -8.93 | – | 2.59 µM [falling, full curve]
O=C1CC2(CCN(C(=O)c3cccc(Cl)c3)CC2)Oc2ccccc21 | -25 | – | 5.8 µM [falling, full curve, poor fit]
Cc1cccn2cc(CNS(=O)(=O)c3ccc4ccccc4c3)nc12 | 8.15 | – | 29.1 µM [falling, single point]
CCO[C@H]1OC(C(=O)N2CCN(Cc3ccccc3)CC2)=C[C@@H](C2CCCCC2)[C@@H]1CCCO | – | – | 29.1 µM [falling, partial curve]
CC(=O)OC(C[N+]1(C)CCCCCC1)c1ccccc1 (configuration not stated) | 21.3 | – | –
CCCn1nnc(NC(=S)NC(=O)C(C)(C)C)n1 | – | 0.00517 µM [falling, full curve, poor fit] | –
O=c1c2[nH]c3cccc(Cl)c3c2ncn1CCN1CCCCC1 | 26.5 | – | 20.6 µM [rising, single point]
C=CCn1c(=O)c2ccccc2n2c(SCC(=O)N(C)C)nnc12 | -5.56 | 0.731 µM [falling, partial curve, poor fit] | –
Cc1cc(=O)oc2c(C)c(OCC(=O)N3CCN(c4ccc(F)cc4)CC3)ccc12 | 11.2 | – | 20.6 µM [falling, single point]

Structure (SMILES) | cell number change [%] | AC50 [1] | AC50 [2]
CCOc1ccc(C2C(C(=O)c3ccco3)=C(O)C(=O)N2Cc2cccnc2)cc1 (configuration not stated) | -34.2 | – | 3.66 µM [falling, full curve]
COc1ccccc1OCC(=O)Nc1ccc2c(c1)OCCO2 | 11.1 | – | –
COC(=O)N1C(=O)[C@@](Cc2ccccc2)(c2ccccc2)N1C(=O)OC | -6.89 | – | –
CC(C)C(NC(=S)NCc1ccccc1)C(=O)O (configuration not stated) | 21.9 | – | –
Cc1ccc(C2=NS(=O)(=O)N(C)C(C(=O)Nc3cc(C)n(CC(=O)N4CCCCC4)n3)=C2)cc1 | – | – | 29.1 µM [rising, single point]
Cc1ccc(S(=O)(=O)NC(=O)c2cccn2C)cc1 | 6.82 | – | –
CCN1C(=O)C(=O)N(CC(=O)N2CCC(C)Sc3ccccc32)C1=O (configuration not stated) | -4.02 | – | 0.82 µM [falling, single point]
Clc1cccc(-c2nc(NCC3CCCO3)c3ccccc3n2)c1 (configuration not stated) | 2.15 | – | 0.517 µM [rising, full curve, poor fit]
COC(=O)CN1C(=S)N(c2ccc(OC)cc2)C(=O)C1CC(=O)Nc1ccc(F)cc1 (configuration not stated) | -2.58 | – | 2.31 µM [falling, partial curve]
COC(=O)c1ccc(/C=C/c2c(-c3ccsc3)oc3ccc(N4CCOCC4)cc23)cc1 | -20.7 | – | 23.1 µM [falling, single point]
CCOC(=O)C1=C(C)N=c2s/c(=C\c3ccc(OC(C)=O)c(OCC)c3)c(=O)n2C1/C=C/c1ccccc1 (configuration not stated) | 19.3 | 6.51 µM [rising, single point] | 6.51 µM [rising, full curve, poor fit]
Cc1ccc(SCC(=O)Nc2cccc(C(=O)NC(C)(C)C)c2)cc1 | 17.8 | – | 23.1 µM [rising, partial curve, poor fit]
Cc1cccc(C)c1NC1=NC(=S)N(c2ccc(C(=O)O)cc2)C12CCCCC2 | – | 6.51 µM [rising, partial curve] | 6.51 µM [rising, partial curve]
C/C(CC(=O)Nc1ccccn1)=N\NC(=O)C(=O)Nc1ccccc1C | 9.81 | – | 0.651 µM [rising, full curve, poor fit]
Cc1ccccc1C(=O)NC(CC(C)C)C(=O)OCC(=O)c1c(N)n(C)c(=O)n(C)c1=O (configuration not stated) | -11.8 | – | –
O=C(CSc1n[nH]c(-c2ccncc2)n1)NC1CCS(=O)(=O)C1 (configuration not stated) | -7.79 | – | 3.26 µM [rising, full curve]
O=c1sc(/C=N/Nc2ccccc2)c(Cl)n1Cc1ccccc1 | -7.39 | – | 2.31 µM [rising, partial curve]
CCOc1ccc(/C(C)=N/NC(=O)C(OC)c2ccccc2)cc1 (configuration not stated) | -10.8 | – | –
NC(=O)CNC1CC(=O)N(CCc2ccccc2)C1=O (configuration not stated) | -110 | 23.1 µM [falling, partial curve] | 20.6 µM [falling, partial curve]
Cc1cccnc1Nc1ncnc(N)c1[N+](=O)[O-] | -11 | 1.84 µM [rising, partial curve, poor fit] | –

Some of these compounds in order of molar mass, ascending:
Structure (SMILES) | cell number change [%] | AC50 [1] | AC50 [2]
CC(C)C(NC(=S)NCc1ccccc1)C(=O)O (configuration not stated) | 21.9 | – | –
Cc1ccc(Cl)cc1NC(=O)COC(=O)CC1CCCCC1 | 36.4 | – | 3.66 µM [falling, single point]
O=c1sc(/C=N/Nc2ccccc2)c(Cl)n1Cc1ccccc1 | -7.39 | – | 2.31 µM [rising, partial curve]
C/C(CC(=O)Nc1ccccn1)=N\NC(=O)C(=O)Nc1ccccc1C | 9.81 | – | 0.651 µM [rising, full curve, poor fit]
COC(=O)N1C(=O)[C@@](Cc2ccccc2)(c2ccccc2)N1C(=O)OC | -6.89 | – | –
O=C1CC2(CCN(C(=O)c3cccc(Cl)c3)CC2)Oc2ccccc21 | -25 | – | 5.8 µM [falling, full curve, poor fit]
Cc1cc(=O)oc2c(C)c(OCC(=O)N3CCN(c4ccc(F)cc4)CC3)ccc12 | 11.2 | – | 20.6 µM [falling, single point]
CCO[C@H]1OC(C(=O)N2CCN(Cc3ccccc3)CC2)=C[C@@H](C2CCCCC2)[C@@H]1CCCO | – | – | 29.1 µM [falling, partial curve]
